Among the data in patent publication US20030162248A1 are binding values, retold here.

The chains behind the UniProt entries cited, without tags or fusion partners. Where a name states a change or a piece, a line headed by the entry shows the natural chain unless it says otherwise.
UniProt P11226: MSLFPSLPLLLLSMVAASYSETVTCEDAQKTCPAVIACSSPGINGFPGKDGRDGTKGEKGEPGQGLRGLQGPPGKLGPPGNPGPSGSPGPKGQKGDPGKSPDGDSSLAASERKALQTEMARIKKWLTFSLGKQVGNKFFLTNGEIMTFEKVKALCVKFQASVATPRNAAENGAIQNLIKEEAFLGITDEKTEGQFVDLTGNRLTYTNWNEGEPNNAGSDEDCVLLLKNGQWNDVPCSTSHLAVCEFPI

Results are given in words; binding and its absence hold for the method and conditions named. Some binding calls cover weakened binding; strength is not graded here.

In assay [1] the target is HIV-gp120 (HIV-1 IIIB gp120) (HIV-1 (IIIB)) (UniProt P04578). The assay is described as follows: lectin blot: viral protein on SDS-PAGE, transferred to membrane, overlaid with 1.0 ug/ml rhMBP in Ca2+ buffer, detected with anti-human MBP polyclonal antibody.
Assay [2] deals with HIV-gp160 (HIV-1 IIIB gp160) (HIV-1 (IIIB)) (UniProt P04578). The description is as above.

Consider “Recombinant Human Mannan-Binding Protein (rhMBP) (from UniProt P11226 21-248)”, for which the binding entry in assay [1] and in assay [2] was “binds” each time.
